According to article PMC10481574:
No constants are given. Whether binding was seen depends on the method and setting. Binding seen in cells or lysates may run through a third protein. Some entries that bind do so weakly or less than the wild type. Where a sequence is shown, tags or fusion partners need not be part of it.

Chains of the proteins cited; added tags and fusions are not shown. Residues count along the entry.
UniProt P20333, residues 23-461: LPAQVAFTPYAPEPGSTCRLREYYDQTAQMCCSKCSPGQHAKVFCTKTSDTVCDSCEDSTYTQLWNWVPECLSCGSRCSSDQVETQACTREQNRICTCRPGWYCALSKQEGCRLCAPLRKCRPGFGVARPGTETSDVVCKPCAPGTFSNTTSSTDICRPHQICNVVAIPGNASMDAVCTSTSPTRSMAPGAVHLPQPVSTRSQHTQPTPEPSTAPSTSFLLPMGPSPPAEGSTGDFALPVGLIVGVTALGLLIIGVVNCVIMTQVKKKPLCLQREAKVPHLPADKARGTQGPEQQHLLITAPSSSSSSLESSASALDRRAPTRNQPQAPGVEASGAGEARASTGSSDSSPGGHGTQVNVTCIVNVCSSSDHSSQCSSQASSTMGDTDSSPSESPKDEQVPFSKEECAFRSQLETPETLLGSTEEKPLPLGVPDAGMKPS
UniProt P19438, residues 30-455: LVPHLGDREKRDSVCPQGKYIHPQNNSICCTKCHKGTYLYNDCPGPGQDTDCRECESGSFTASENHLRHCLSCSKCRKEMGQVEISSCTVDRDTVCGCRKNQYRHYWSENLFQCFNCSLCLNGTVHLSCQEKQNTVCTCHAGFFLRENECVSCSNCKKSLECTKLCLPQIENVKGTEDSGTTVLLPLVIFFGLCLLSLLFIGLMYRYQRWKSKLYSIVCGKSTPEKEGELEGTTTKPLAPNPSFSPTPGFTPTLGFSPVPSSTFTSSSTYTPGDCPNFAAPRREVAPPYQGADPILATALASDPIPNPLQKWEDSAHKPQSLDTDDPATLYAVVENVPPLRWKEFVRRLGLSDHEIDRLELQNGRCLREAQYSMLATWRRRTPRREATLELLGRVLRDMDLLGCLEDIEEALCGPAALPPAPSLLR

B1: RGS5-3xFLAG (regulator of G-protein signaling 5, full length, human isoform 1) (protein, UniProt O15539 1-181)
chain: MCKGLAALPHSCLERAKEIKIKLGILLQKPDSVGDLVIPYNEKPEKPAKTQKTSLDEALQWRDSLDKLLQNNYGLASFKSFLKSEFSEENLEFWIACEDYKKIKSPAKMAEKAKQIYEEFIQTEAPKEVNIDHFTKDITMKNLVEPSLSSFDMAQKRIHALMEKDSLPRFVRSEFYQELIK
B2: SmBit-RGS5 (SmBit Nano luciferase fused to the amino terminus of RGS5) (protein, UniProt O15539 1-181)
chain: B1 chain
B3: RGS5 aa 64-108 (RGS domain fragment) (domain or fragment, UniProt O15539 64-108)
chain: SLDKLLQNNYGLASFKSFLKSEFSEENLEFWIACEDYKKIKSPAK
B4: RGS5-NanoLuc (protein, UniProt O15539 1-181)
chain: B1 chain
B5: RGS5 aa 109-181 (C-RGS5) (domain or fragment, UniProt O15539 109-181)
chain: MAEKAKQIYEEFIQTEAPKEVNIDHFTKDITMKNLVEPSLSSFDMAQKRIHALMEKDSLPRFVRSEFYQELIK

Columns and labels:
[1] = biological target: HA-tagged TNFR2 (TNF receptor 2, full length) (human) (UniProt P20333); assay: co-IP; HEK293T cells harvested ~24 h after transfection, lysed in cell lysis buffer for Western and IP (Beyotime P0013); lysates precleared with protein A/G-PLUS agarose beads; IP with anti-HA tag or anti-FLAG tag antibody, immunoblot
[2] = biological target: HA-tagged TNFR1 (TNF receptor 1, full length) (human) (UniProt P19438); assay: as above
[3] = biological target: TNFR1-LgBit (LgBit Nano luciferase fused to the carboxy terminus of TNFR1) (human) (UniProt P19438); assay: split reporter; NanoBit; cells co-transfected with SmBit-RGS5 and TNFR1-LgBit or TNFR2-LgBit, 384-well plate, Opti-MEM with 4% FBS; incubated with compounds (feshurin, butein) or DMSO for 6 h before the luciferase substrate
[4] = biological target: TNFR2-LgBit (LgBit Nano luciferase fused to the carboxy terminus of TNFR2) (human) (UniProt P20333); assay: as above
HaloTag-TNFR1 (human) = HaloTag-TNFR1 (human) (UniProt P19438); assay: FRET or BRET; NanoBRET PPI Starter System (Promega); HEK293T cells co-transfected with RGS5-NanoLuc and HaloTag-TNFR1/TNFR2; 100 nM HaloTag NanoBRET 618 Ligand; BRET ratios normalised to RGS5-NanoLuc with the empty HaloTag vector (pHTC)
HaloTag-TNFR2 (human) = HaloTag-TNFR2 (human) (UniProt P20333); assay: as above

| Binder | binding [1] | binding [2] | other results |
| --- | --- | --- | --- |
| B1 | binds | binds |  |
| B2 |  |  | binding [3]: binds; binding [4]: binds |
| B3 |  | binds |  |
| B4 |  |  | binding (HaloTag-TNFR1 (human)): binds; binding (HaloTag-TNFR2 (human)): binds |
| B5 | no binding | no binding |  |
